According to article PMC12170880:
The comparison behind a weaker result is the experiment's own reference, which may not be listed here. Where a protein sequence is shown, tags need not be part of it. For some of these results: For at least one entry, the source does not settle the construct or the ends of the probe. For some of these results: At least one verdict was read from the data and is not stated in words by the source.

Columns and labels:
[1] = biological target: T1, HDIP1-c (Arabidopsis thaliana) (UniProt F4I0M4); assay: EMSA; conditions: EMSA: 10 mM Tris-HCl pH 7.5, 50 mM NaCl, 1 mM EDTA, 5% glycerol, 1 mg/mL BSA, 1 mM DTT, 30 min, room temperature, 6% native PAGE, 0.5x TBE, recombinant protein, residues 766-826, label: Cy5
T1 sequence (looked up): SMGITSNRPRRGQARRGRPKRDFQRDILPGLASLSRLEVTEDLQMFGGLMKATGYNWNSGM

[2] = biological target: T2, HDIP3-DBD (Arabidopsis thaliana) (UniProt Q9LMG4); assay: EMSA; conditions: only partially shifted versus 200-bp P1; EMSA: 10 mM Tris-HCl pH 7.5, 50 mM NaCl, 1 mM EDTA, 5% glycerol, 1 mg/mL BSA, 1 mM DTT; 30 min, room temperature; 6% native PAGE, 0.5x TBE; recombinant protein; residues 806-930; protein details: MBP; label: Cy5
T2 sequence (looked up): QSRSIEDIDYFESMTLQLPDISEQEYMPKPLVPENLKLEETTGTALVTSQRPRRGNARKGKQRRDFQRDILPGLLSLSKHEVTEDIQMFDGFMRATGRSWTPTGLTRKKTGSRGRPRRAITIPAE

| Sequence | binding result ([1]; versus 200-bp P1) | binding result ([1]; only partially shifted versus 200-bp P1) | binding result [2] |
| --- | --- | --- | --- |
| GTTTCCACGTGGCAGCCTAATACTCCCAAAATATAATCTTTTGTTTTCGT (double strand) [P1-3 (50 bp)] | binds more weakly |  |  |
| GGTTCGTGAAACAGTGAGGGAAAAAGAAGAAGAAGAAGAGAAGACAGTCT (double strand) [P1-1 (50 bp)] |  | binds more weakly | binds more weakly |
| CTAGCACGTGCCAGGTCATGTGTCGGCGACGGTCAAATGCCGGTGCAAGT (double strand) [P1-2 (50 bp)] | binds more weakly |  |  |
